Results on one molecule are retold here after patent US20210401931A1 (MAYO FOUNDATION FOR MEDICAL EDUCATION AND RESEARCH, published 2021).

Experiment [1] deals with T1, HA-RB wild-type (pCMV HA hRB-wt) (human, UniProt P06400 1-928).
T1 construct: Ectopically expressed in DU145 or PC-3 cells; also called wild-type RB; not shown: HA tag
T1 sequence (looked up): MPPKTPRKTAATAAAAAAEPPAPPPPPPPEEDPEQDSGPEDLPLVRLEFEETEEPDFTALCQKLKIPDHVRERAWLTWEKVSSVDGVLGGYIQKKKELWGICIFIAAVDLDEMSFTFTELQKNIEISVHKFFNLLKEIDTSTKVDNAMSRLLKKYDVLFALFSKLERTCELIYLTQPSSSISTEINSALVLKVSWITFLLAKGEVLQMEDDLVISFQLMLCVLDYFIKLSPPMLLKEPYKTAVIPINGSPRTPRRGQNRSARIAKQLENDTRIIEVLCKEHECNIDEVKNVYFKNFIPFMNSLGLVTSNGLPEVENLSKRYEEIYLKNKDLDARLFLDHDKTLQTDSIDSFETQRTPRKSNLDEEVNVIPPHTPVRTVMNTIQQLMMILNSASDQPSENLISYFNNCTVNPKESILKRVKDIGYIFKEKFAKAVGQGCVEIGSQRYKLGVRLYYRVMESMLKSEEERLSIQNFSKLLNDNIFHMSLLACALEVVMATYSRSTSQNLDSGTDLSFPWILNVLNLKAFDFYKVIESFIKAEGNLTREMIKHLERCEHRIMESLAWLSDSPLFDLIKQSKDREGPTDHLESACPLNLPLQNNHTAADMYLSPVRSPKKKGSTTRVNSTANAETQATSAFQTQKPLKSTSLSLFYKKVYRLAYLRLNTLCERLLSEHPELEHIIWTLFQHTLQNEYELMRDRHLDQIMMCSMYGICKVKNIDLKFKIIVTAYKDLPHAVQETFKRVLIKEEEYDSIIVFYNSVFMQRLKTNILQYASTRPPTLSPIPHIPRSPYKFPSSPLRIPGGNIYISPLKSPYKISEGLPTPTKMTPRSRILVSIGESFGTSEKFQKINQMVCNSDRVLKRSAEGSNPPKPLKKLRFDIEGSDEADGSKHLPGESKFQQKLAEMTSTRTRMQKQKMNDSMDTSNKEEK
Description: co-IP from transfected DU145 cells, western blot (FIG. 2E). A general note: In western blotting, separated proteins are transferred to a membrane and probed.

Experiment [2] addresses T2, retinoblastoma protein RB (endogenous) (human, UniProt P06400 2-928).
T2 construct: Endogenous protein of cell lysates, phosphorylation state as in the cells; also called RB1; endogenous RB
T2 sequence (looked up): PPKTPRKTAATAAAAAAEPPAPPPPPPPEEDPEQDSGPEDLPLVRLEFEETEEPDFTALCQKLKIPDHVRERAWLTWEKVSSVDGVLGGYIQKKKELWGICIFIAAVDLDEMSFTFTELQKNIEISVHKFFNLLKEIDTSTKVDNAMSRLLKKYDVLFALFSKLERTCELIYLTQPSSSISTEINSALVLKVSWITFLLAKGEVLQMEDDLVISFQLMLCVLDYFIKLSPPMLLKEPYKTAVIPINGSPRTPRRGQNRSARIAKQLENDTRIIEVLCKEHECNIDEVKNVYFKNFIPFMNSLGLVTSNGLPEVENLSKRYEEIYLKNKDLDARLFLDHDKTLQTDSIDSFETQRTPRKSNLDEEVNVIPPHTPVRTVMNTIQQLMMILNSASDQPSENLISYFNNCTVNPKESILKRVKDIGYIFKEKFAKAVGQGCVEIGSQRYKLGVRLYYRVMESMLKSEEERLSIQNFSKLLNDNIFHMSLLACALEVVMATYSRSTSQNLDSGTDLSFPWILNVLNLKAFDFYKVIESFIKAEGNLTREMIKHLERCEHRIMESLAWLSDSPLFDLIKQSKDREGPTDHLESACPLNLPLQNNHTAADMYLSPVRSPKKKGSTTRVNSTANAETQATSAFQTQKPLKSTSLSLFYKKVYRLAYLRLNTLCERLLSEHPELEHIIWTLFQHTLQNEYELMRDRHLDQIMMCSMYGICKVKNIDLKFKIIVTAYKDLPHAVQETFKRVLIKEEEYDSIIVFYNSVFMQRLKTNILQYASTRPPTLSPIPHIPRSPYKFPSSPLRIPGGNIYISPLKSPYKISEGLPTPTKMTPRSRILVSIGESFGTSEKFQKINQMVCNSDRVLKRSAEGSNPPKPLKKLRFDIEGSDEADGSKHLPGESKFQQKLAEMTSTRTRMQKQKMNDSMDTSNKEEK
Kind of experiment: co-IP from PC-3 cells with or without palbociclib (5 µM, 24 hours) (FIG. 2F).

B1: E2F1 (other, human, UniProt Q01094 1-437, looked up)
chain: MALAGAPAGGPCAPALEALLGAGALRLLDSSQIVIISAAQDASAPPAPTGPAAPAAGPCDPDLLLFATPQAPRPTPSAPRPALGRPPVKRRLDLETDHQYLAESSGPARGRGRHPGKGVKSPGEKSRYETSLNLTTKRFLELLSHSADGVVDLNWAAEVLKVQKRRIYDITNVLEGIQLIAKKSKNHIQWLGSHTTVGVGGRLEGLTQDLRQLQESEQQLDHLMNICTTQLRLLSEDTDSQRLAYVTCQDLRSIADPAEQMVMVIKAPPETQLQAVDSSENFQISLKSKQGPIDVFLCPEETVGGISPGKTPSQEVTSEEENRATDSATIVSPPPSSPPSSLTTDPSQSLLSLEQEPLLSRMGSLRAPVDEDRLSPLVAADSLLEHVREDFSGLLPEEFISLSPPHEALDYHFGLEEGEGIRDLFDCDFGDLTPLDF
B1: the binding result in experiment [1] and in experiment [2] was “binds” throughout.
